# According to patent US20230190697A1, “METHODS FOR TREATING VIRAL INFECTIONS WITH NAFAMOSTAT” (priority 2020, published 2023):
# This continues a long series; more values of the same kind are listed elsewhere.
# Assay: Pharmacokinetics of oral nafamostat mesylate solution in healthy male and female subjects
# Assay type: in vivo
# Conditions: human, 200 mg dose level, Day 4, 0 h post-dose, individual subjects, listed as NM, dimethanesulfonate
# Method: Part 1: Single Ascending Dose Study. Male and female subjects aged 18 - 70 were administered a single dose of 50 mg nafamostat mesylate on day 1, 100 mg nafamostat mesylate on day 3 or 4, and 200 mg nafamostat mesylate on day 5, 6, or 7. Nafamostat mesylate was administered in the form of an oral solution. […]
# Part 2: Multiple Ascending Dose Study. Subjects were divided into 2 cohorts. Cohort 1 received an oral solution of 100 mg/mL nafamostat mesylate twice a day for 5 days with pharmacokinetic evaluations on each day. […] Safety evaluations continued for 48 hours after the last dose. After review and evidence of safety, Cohort 2 received an oral solution of 200 mg/mL nafamostat mesylate twice a day for 5 days with pharmacokinetic evaluations on each day. […] Safety evaluations continued for 48 hours after the last dose.
# Part 3: Single Fixed Dose Administered Twice Daily for 5 Days. Six subjects, different than the subjects from Parts 1 and 2, received an oral solution of 200 mg/mL nafamostat mesylate twice a day for 5 days. Blood samples were obtained at pre-dose (0 hr.) and at 0.5, 1, 2, 3, 4, 6, and 8 hours after the first dose on Day 1 and again after the first dose on Day 5. […]
# Nafamostat pharmacokinetics was evaluated at the 200 mg dose levels.
smiles,measurement,value
"CS(=O)(=O)O.CS(=O)(=O)O.N=C(N)Nc1ccc(C(=O)Oc2ccc3cc(C(=N)N)ccc3c2)cc1 [nafamostat mesylate, 6-amidino-2-naphthyl p-guanidinobenzoate dimethanesulfonate]",NM,0.457 ng/mL
